Experimental data from article PMC7485976.
No constants are given. Whether binding was seen depends on the method and setting. In cells and extracts the contact can be indirect. Some entries that bind do so weakly or less than the wild type.

The chains behind the UniProt entries cited, without tags or fusion partners. Residues count along the entry.
UniProt P28159: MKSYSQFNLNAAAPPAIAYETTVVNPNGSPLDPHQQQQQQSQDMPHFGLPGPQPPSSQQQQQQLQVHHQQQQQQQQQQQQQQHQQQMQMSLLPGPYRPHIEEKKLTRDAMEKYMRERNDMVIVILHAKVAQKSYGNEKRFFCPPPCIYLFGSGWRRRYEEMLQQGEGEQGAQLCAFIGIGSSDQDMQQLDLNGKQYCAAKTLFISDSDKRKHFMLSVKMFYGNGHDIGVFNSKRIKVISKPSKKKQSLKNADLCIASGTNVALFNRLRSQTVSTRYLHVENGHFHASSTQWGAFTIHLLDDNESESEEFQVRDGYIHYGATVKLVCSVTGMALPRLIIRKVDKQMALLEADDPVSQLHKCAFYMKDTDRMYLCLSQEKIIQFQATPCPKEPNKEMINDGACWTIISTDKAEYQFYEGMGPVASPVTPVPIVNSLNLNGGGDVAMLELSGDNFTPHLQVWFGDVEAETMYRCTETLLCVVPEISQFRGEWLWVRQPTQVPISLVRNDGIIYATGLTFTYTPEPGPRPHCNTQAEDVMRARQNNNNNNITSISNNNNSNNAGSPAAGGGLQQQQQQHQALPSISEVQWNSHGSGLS
UniProt P13002, residues 551-1333: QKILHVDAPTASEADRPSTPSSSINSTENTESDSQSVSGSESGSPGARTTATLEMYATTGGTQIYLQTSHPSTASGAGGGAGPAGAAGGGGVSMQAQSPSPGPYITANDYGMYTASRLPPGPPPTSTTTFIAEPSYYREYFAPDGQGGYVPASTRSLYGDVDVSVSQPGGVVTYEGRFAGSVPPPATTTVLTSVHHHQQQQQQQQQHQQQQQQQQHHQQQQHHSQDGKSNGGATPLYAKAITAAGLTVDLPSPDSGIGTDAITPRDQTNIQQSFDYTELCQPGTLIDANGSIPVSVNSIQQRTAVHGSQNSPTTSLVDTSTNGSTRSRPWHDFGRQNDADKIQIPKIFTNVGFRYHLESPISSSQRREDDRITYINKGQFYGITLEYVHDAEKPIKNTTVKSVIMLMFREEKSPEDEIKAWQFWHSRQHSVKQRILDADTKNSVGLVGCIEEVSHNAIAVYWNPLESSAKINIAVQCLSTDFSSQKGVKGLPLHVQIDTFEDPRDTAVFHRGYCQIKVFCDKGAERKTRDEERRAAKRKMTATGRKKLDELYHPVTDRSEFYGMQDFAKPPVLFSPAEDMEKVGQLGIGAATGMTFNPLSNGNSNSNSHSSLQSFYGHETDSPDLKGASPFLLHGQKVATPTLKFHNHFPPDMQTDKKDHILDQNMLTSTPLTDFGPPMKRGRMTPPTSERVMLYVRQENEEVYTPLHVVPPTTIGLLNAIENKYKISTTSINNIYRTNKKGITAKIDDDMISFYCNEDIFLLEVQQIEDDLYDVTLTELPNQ

What was measured:
[1] = target: GST-tagged Su(H) (Drosophila) (UniProt P28159); test: pull-down; in-vitro pulldown of bacterially expressed proteins: GST-tagged bait or GST alone, His-tagged prey; Western blot
[2] = target: N-terminal-GST-tagged Abd-B-N (aa residues 313 to 493) (Drosophila) (UniProt P09087); test: pull-down; GST-tagged Abd-B or GST alone as bait; His-tagged Grh pulled down from bacterial lysate; Western blot; also with micrococcal nuclease treatment; performed as in ref. 13; only the target purified
[3] = target: N-terminal-GST-tagged Abd-B-N (aa residues 313 to 493) (Drosophila) (UniProt P09087); test: pull-down; in-vitro pulldown of bacterially expressed proteins: GST-tagged bait or GST alone, His-tagged prey; Western blot

| Substance | binding [1] | binding [2] | binding [3] |
| --- | --- | --- | --- |
| His tagged Grh (551–1333 aa) (from UniProt P13002 551-1333) (domain or fragment) | binds | binds | – |
| His-tagged Su(H) (from UniProt P28159 1-594) | – | – | binds |
